Measurements reported in the supplement of paper PMC10849652.
The other results are listed elsewhere or left out. Residues, ends and D or L forms follow the SMILES beside them. *: point of attachment. Cbz = O=C(OCc1ccccc1)*

By UniProt entry, the sequences of proteins in these tests, tags left out. Where a name states a change or a piece, a line headed by the entry shows the natural chain unless it says otherwise.
UniProt Q3KQU3: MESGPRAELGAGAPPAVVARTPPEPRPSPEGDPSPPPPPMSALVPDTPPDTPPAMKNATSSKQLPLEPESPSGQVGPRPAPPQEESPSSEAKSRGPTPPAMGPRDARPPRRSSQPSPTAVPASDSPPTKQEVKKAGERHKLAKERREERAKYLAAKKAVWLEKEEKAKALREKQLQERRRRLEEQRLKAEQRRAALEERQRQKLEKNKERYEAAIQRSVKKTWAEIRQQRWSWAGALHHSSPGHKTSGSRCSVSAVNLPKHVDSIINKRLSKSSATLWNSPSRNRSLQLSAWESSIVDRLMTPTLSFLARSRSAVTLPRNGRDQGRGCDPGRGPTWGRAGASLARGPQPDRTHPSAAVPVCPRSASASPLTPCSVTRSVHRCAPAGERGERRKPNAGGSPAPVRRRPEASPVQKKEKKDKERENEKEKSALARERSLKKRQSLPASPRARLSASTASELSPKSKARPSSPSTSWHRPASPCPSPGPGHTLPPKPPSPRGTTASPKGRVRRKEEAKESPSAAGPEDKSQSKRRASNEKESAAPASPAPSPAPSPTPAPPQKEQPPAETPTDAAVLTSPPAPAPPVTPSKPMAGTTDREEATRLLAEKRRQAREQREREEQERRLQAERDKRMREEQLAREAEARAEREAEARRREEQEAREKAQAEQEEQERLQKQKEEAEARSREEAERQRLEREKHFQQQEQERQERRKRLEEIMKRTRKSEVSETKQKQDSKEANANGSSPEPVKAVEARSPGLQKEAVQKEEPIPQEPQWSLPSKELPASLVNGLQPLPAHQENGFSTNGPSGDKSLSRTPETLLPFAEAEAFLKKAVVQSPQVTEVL
UniProt Q96A72, whole entry, looked up: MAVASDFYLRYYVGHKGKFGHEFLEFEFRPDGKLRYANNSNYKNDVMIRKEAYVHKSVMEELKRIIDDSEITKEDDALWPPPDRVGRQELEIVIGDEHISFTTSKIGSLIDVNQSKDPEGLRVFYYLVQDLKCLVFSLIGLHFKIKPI
UniProt P53778: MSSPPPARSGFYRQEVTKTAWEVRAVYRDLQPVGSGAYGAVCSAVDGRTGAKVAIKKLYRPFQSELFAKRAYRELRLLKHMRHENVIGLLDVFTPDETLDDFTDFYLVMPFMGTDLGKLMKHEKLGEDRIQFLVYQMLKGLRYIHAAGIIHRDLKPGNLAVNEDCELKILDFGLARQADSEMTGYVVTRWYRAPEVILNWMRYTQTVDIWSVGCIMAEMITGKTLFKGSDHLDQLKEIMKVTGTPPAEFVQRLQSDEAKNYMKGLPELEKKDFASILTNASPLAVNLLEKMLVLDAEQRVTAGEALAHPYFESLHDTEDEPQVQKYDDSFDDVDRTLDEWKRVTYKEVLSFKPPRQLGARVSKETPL
UniProt Q9Y2E5: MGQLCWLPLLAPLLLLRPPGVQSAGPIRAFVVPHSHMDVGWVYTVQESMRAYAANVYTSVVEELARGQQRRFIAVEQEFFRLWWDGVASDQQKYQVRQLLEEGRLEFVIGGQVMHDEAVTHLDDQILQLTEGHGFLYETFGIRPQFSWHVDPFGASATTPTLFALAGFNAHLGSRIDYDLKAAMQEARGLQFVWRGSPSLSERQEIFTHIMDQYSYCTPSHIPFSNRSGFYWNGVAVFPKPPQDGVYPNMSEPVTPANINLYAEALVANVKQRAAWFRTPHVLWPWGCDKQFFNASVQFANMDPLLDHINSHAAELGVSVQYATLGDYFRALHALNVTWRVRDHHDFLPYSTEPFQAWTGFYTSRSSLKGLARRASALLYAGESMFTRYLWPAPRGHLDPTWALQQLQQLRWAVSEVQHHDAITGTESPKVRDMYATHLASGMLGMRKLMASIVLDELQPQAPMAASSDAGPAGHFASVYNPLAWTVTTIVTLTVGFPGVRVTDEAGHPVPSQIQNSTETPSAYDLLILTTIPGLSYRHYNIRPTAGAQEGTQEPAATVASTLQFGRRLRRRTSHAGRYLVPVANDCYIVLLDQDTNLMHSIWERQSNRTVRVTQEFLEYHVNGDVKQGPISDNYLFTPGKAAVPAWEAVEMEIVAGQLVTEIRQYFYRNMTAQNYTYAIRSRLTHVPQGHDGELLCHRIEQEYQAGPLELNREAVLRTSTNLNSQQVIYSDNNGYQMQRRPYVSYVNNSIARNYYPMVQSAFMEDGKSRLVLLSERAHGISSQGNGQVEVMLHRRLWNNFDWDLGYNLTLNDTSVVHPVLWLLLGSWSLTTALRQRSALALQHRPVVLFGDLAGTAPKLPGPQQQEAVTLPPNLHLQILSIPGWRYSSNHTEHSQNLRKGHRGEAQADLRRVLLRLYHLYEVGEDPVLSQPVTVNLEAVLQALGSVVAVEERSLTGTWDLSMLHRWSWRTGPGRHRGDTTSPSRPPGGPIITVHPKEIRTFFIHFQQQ
UniProt P27816: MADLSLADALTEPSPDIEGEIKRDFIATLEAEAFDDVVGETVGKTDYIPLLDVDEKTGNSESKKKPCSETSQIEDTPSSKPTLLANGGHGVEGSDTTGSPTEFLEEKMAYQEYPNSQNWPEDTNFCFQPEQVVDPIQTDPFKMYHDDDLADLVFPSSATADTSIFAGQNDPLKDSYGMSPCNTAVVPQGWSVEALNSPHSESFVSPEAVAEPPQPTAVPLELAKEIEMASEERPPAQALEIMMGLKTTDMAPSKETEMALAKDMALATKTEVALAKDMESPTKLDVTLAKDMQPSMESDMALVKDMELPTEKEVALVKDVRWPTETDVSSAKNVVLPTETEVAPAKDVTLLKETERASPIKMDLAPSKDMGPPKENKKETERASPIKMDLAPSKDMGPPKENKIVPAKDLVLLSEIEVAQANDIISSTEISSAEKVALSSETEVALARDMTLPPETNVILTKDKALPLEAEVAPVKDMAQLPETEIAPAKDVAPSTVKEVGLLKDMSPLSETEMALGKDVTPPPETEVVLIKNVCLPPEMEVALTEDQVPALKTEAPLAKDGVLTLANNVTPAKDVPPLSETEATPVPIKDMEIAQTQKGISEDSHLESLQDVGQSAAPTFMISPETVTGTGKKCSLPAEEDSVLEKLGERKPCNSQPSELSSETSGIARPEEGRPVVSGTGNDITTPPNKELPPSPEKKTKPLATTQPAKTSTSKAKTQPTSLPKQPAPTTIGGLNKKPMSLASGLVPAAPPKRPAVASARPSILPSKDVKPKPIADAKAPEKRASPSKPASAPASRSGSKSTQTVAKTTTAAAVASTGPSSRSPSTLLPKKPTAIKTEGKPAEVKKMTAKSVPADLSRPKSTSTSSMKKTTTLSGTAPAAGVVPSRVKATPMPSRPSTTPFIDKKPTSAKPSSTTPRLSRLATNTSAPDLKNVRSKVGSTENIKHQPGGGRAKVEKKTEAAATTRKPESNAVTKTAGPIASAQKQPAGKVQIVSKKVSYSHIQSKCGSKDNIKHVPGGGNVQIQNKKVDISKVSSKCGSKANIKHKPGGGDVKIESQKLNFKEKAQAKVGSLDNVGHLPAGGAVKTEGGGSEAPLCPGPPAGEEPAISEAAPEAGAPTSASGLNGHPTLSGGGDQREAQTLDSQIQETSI
UniProt Q16539, whole entry, looked up: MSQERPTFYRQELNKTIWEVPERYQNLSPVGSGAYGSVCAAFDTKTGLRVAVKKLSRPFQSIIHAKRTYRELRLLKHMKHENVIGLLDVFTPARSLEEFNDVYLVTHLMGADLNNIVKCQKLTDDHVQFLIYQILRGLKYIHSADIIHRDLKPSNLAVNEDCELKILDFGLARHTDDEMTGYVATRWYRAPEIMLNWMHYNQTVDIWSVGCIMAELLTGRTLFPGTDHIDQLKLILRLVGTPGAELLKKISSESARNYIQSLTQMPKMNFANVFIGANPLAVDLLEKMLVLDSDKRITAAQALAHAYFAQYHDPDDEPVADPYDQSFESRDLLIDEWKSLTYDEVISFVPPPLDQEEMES
UniProt P07948: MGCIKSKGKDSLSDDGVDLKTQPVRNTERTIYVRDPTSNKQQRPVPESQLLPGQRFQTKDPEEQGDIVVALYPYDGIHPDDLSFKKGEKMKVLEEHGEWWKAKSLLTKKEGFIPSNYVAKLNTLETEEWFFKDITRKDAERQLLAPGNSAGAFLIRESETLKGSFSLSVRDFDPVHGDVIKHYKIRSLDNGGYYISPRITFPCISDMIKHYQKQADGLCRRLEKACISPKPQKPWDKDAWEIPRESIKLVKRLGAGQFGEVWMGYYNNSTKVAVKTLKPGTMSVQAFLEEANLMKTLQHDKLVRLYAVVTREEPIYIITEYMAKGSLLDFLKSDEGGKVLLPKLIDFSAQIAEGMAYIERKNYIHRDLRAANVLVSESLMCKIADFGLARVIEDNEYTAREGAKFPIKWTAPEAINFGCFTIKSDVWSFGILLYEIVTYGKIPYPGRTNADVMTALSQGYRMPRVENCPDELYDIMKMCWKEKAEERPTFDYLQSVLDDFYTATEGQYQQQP
UniProt Q8WV07: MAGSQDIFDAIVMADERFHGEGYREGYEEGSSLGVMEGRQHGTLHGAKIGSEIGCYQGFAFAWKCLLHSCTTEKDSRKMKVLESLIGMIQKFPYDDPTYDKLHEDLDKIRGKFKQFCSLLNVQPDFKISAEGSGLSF
UniProt P49006: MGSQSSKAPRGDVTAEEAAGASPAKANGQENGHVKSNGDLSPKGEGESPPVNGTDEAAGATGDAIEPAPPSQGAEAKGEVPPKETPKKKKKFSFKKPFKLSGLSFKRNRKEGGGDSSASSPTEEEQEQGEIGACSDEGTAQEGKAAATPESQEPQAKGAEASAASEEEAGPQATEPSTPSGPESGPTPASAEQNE
UniProt P29966: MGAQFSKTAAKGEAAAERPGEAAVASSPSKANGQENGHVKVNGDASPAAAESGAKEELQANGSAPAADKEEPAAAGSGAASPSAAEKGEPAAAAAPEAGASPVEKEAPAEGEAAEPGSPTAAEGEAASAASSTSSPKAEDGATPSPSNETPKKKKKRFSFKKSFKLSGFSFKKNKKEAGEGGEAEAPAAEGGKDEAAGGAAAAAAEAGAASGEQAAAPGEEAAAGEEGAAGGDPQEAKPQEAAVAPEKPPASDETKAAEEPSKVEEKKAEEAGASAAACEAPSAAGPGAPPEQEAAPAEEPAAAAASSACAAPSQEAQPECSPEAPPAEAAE
UniProt O95232: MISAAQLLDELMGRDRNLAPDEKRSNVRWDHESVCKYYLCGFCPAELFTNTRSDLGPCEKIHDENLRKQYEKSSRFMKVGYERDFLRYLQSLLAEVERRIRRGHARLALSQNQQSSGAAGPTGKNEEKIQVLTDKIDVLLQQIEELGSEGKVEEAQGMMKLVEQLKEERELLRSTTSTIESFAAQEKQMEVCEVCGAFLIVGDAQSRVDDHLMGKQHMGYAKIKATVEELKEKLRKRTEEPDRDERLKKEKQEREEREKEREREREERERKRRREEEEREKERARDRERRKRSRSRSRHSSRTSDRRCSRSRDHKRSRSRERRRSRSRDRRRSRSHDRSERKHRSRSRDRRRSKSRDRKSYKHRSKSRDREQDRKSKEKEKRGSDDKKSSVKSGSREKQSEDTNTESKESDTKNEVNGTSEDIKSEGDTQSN
UniProt Q86V48: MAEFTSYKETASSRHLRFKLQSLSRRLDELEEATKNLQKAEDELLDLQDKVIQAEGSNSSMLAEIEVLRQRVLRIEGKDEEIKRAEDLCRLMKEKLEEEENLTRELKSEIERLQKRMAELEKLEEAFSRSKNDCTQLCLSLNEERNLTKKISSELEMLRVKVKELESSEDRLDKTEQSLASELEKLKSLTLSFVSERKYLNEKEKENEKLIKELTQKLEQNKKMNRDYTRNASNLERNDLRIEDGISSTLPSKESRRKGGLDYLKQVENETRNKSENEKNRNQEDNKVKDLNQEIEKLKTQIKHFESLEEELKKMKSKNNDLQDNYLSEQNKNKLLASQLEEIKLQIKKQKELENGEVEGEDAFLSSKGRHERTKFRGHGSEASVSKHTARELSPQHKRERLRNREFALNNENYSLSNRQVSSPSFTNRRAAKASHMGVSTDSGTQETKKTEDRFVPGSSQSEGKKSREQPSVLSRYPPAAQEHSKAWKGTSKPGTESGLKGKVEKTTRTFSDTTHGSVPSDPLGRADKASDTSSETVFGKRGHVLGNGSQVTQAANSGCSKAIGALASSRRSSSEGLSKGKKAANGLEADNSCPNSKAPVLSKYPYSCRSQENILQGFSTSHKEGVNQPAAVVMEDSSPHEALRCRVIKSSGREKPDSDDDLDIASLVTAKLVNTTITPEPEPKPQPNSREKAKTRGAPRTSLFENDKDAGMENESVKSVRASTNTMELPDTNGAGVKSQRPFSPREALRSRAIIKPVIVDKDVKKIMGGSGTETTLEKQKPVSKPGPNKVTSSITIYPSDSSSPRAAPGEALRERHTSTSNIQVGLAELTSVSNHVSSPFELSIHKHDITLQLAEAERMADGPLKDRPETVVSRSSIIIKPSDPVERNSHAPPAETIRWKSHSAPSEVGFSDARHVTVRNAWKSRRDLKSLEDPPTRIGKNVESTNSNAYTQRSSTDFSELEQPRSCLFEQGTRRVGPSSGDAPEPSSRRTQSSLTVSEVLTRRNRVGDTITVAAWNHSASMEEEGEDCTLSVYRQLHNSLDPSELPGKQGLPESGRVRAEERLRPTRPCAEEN

How the values were obtained:
Experiment in all cases: log2 fold change, soluble protein after heating vs DMSO (PISA); higher = thermal stabilisation; K562 cells, 10 uM, 30 min; active = over 0.2 and 3.5 SD of the protein, either way, in both replicates (recomputed)
IRAK-1-4 Inhibitor I = compound: C1COCCN1CCN2C3=CC=CC=C3N=C2NC(=O)C4=CC(=CC=C4)[N+](=O)[O-] [IRAK-1-4 Inhibitor I]
Method in brief: (§1)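 K562 cells at 2×10^6 cells/mL were treated for 30 min with 10 μM compound, and aliquots were heated for 3 min over 48°C-58°C before pooling. Extraction used PBS with 0.5% NP-40 at 4°C, and soluble protein was the supernatant after 21,000xg for 90 min, measured by TMTpro 16plex LC-MS/MS with channel sums equalised. Thermal stability values, relative to control samples and from duplicates, are log2 fold changes.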

ibrutinib = compound: C=CC(=O)N1CCC[C@@H](n2nc(-c3ccc(Oc4ccccc4)cc3)c3c(N)ncnc32)C1 [ibrutinib]
Method in brief: as §1

[1] = compound: CC(=O)c1cnc2ccc(-c3cc(Cl)c(O)c(Cl)c3)nc2c1N[C@H]1CC[C@H](CN(C)C)CC1
Method in brief: as §1

ralimetinib = compound: CC(C)(C)Cn1c(N)nc2ccc(-c3[nH]c(C(C)(C)C)nc3-c3ccc(F)cc3)nc21 [ralimetinib]
Method in brief: as §1

[2] = compound: CC(C)(O)CC(=O)NCCn1ccc2ncnc(Nc3ccc(Oc4cccc(C(F)(F)F)c4)c(Cl)c3)c21
Method in brief: as §1

[3] = compound: CC(C)C1=C2N=C(C=C(N2N=C1)NCC3=CC=CC=C3)NCCCCCCN
Method in brief: as §1

[4] = compound: CC(C)C[C@@H](C=O)NC(=O)[C@H](CC(C)C)NC(=O)[C@H](CC(C)C)NC(=O)OCc1ccccc1
Method in brief: as §1

pinometostat = compound: CC(C)N(C[C@H]1O[C@@H](n2cnc3c(N)ncnc32)[C@H](O)[C@@H]1O)[C@H]1C[C@@H](CCc2nc3cc(C(C)(C)C)ccc3[nH]2)C1 [pinometostat]
Method in brief: as §1

[5] = compound: CC1=C(C(CC(=O)N1)C2=CC=C(C=C2)C(F)(F)F)C(=O)NC3=C(C=C4C(=C3)C=NN4)F
Method in brief: as §1

[6] = compound: CC1=C(C2=C(C=C1)C(=O)C3=CC=CC=C3N2CCCN)C
Method in brief: as §1

[7] = compound: CC1=C(C=C(C=C1)NC(=O)C2=CC(=CC=C2)C(C)(C)C#N)NC3=CC4=C(C=C3)N=CN(C4=O)C
Method in brief: as §1

[8] = compound: CC1=C(C=C(C=C1)NC(=O)C2=CC(=CC=C2)N(C)C)NC(=O)C3=CC=C(C=C3)O
Method in brief: as §1

[9] = compound: CC1=CC=C(C=C1)SC2=C3C=C(SC3=CN=C2)C(=O)N
Method in brief: as §1

[10] = compound: CC1=NC(=CC=C1)C2=C(N=C(N2)C(C)(C)C)C3=CC4=NC=CN=C4C=C3
Method in brief: as §1

Nexturastat A = compound: CCCCN(Cc1ccc(C(=O)NO)cc1)C(=O)Nc1ccccc1 [Nexturastat A]
Method in brief: as §1

vemurafenib = compound: CCCS(=O)(=O)Nc1ccc(F)c(C(=O)c2c[nH]c3ncc(-c4ccc(Cl)cc4)cc23)c1F [vemurafenib]
Method in brief: as §1

[11] = compound: CCCS(=O)(=O)Nc1ccc(F)c(C(=O)c2c[nH]c3ncc(Cl)cc23)c1F
Method in brief: as §1

[12] = compound: CCCc1cc(C)[nH]c(=O)c1CNC(=O)c1cc(-c2ccnc(N3CCN(C)CC3)c2)cc2c1cnn2C(C)C
Method in brief: as §1

givinostat = compound: CCN(CC)Cc1ccc2cc(COC(=O)Nc3ccc(C(=O)NO)cc3)ccc2c1 [givinostat]
Method in brief: as §1

barasertib = compound: CCN(CCCOc1ccc2c(Nc3cc(CC(=O)Nc4cccc(F)c4)[nH]n3)ncnc2c1)CCOP(=O)(O)O [barasertib]
Method in brief: as §1

Measured: log2 fold change

MAP7D1 (UniProt Q3KQU3)
inactive: IRAK-1-4 Inhibitor I -0.099 | ibrutinib 0.026 | [1] 0.068 | ralimetinib 0.227 | [2] 0.028 | [3] -0.021 | [4] 0.086 | pinometostat 0.37 | [5] 0.055 | [6] -0.219 | [7] -0.118 | [8] -0.002 | [9] -0.035 | [10] -0.045 | Nexturastat A 0.231 | vemurafenib -0.192 | [11] -0.04 | [12] 0.104 | givinostat 0.117 | barasertib -0.102

LTN1 isoform 3 (UniProt O94822)
inactive: IRAK-1-4 Inhibitor I -0.05 | ibrutinib -0.015 | [1] -0.02 | ralimetinib 0.007 | [2] -0.136 | [4] 0.055 | pinometostat 0.098 | [6] 0.093 | [7] -0.013 | [8] -0.031 | [9] -0.008 | [10] -0.006 | Nexturastat A 0.104 | vemurafenib 0.039 | [11] 0.058 | [12] 0.017 | givinostat 0.065 | barasertib 0.042
active: [3] -0.305

MAGOHB (UniProt Q96A72)
inactive: IRAK-1-4 Inhibitor I -0.031 | ibrutinib 0.004 | [1] 0.25 | ralimetinib -0.094 | [2] 0.015 | [3] 0.061 | [4] 0 | pinometostat -0.022 | [6] 0.028 | [7] -0.002 | [8] -0.062 | [9] 0.008 | [10] 0.067 | Nexturastat A -0.026 | vemurafenib 0.037 | [11] 0.04 | [12] -0.069 | givinostat 0.003 | barasertib 0.007

MAPK12 (UniProt P53778)
inactive: IRAK-1-4 Inhibitor I 0.074 | ibrutinib 0.066 | [1] 0.201 | ralimetinib -0.046 | [2] 0.001 | [3] 0.388 | [4] -0.005 | pinometostat -0.004 | [6] -0.025 | [7] -0.043 | [8] 0.017 | [9] -0.022 | [10] 0.09 | Nexturastat A -0.112 | vemurafenib 0.019 | [11] 0.104 | [12] 0.016 | givinostat -0.058 | barasertib -0.031

MAN2B2 (UniProt Q9Y2E5)
inactive: IRAK-1-4 Inhibitor I 0.086 | ibrutinib -0.079 | [1] -0.171 | ralimetinib 0.029 | [2] -0.033 | [3] -0.078 | [4] 0.043 | pinometostat 0.089 | [6] -0.048 | [7] 0.017 | [8] 0.049 | [9] 0.033 | [10] -0.056 | Nexturastat A -0.062 | vemurafenib -0.105 | [11] -0.17 | [12] 0.139 | givinostat 0.014 | barasertib 0.041

MAP4 (UniProt P27816)
inactive: IRAK-1-4 Inhibitor I 0.003 | ibrutinib 0 | [1] 0.012 | ralimetinib 0.025 | [2] 0.012 | [3] 0.076 | [4] 0.019 | pinometostat 0.001 | [6] 0.08 | [7] -0.006 | [8] 0.007 | [9] -0.018 | [10] -0.01 | Nexturastat A 0.003 | vemurafenib -0.018 | [11] -0.007 | [12] 0.002 | givinostat -0.004 | barasertib -0.046

MAPK14 isoform 2 (UniProt Q16539)
active: [1] 1.01 | ralimetinib 1.48 | [7] 1.9
inactive: IRAK-1-4 Inhibitor I -0.011 | ibrutinib 0.001 | [2] -0.096 | [3] -0.218 | [4] -0.089 | pinometostat -0.141 | [6] -0.013 | [8] 0.649 | [9] 0.024 | [10] 0.036 | Nexturastat A 0.064 | vemurafenib 0.095 | [11] 0.219 | [12] 0.026 | givinostat 0.107 | barasertib -0.005

LYN (UniProt P07948)
inactive: IRAK-1-4 Inhibitor I -0.016 | ralimetinib 0.045 | [2] 0.018 | [3] -0.03 | [4] 0.24 | pinometostat 0.065 | [6] 0.078 | [7] 0.195 | [8] -0.053 | [9] -0.036 | [10] 0.037 | Nexturastat A 0.293 | vemurafenib -0.016 | [11] -0.143 | [12] -0.22 | givinostat 0.211 | barasertib -0.057
active: ibrutinib 0.4 | [1] -0.456

LTO1 (UniProt Q8WV07)
inactive: IRAK-1-4 Inhibitor I -0.028 | ibrutinib 0.037 | [1] 0.061 | ralimetinib 0.028 | [2] 0.011 | [3] -0.017 | [4] 0 | pinometostat -0.028 | [6] 0.041 | [7] 0.021 | [8] -0.042 | [9] -0.021 | [10] -0.009 | Nexturastat A 0.245 | vemurafenib 0.101 | [11] 0.027 | [12] 0 | givinostat -0.121 | barasertib -0.04

MARCKSL1 (UniProt P49006)
inactive: IRAK-1-4 Inhibitor I 0.041 | ibrutinib 0 | [1] -0.039 | ralimetinib -0.069 | [2] 0.106 | [3] 0.006 | [4] -0.034 | pinometostat -0.017 | [6] 0.028 | [7] 0.039 | [8] 0.011 | [9] -0.111 | [10] 0.032 | Nexturastat A -0.127 | vemurafenib 0.005 | [11] -0.125 | [12] 0.005 | givinostat 0.041 | barasertib 0.034

MARCKS (UniProt P29966)
inactive: IRAK-1-4 Inhibitor I -0.077 | ibrutinib 0.071 | [1] 0.014 | ralimetinib 0.025 | [2] -0.099 | [3] 0.039 | [4] 0.134 | pinometostat -0.109 | [6] 0.002 | [7] -0.001 | [8] -0.066 | [9] 0.01 | [10] 0.072 | Nexturastat A -0.104 | vemurafenib 0.047 | [11] -0.004 | [12] 0.252 | givinostat -0.096 | barasertib 0.005

MAP4 (UniProt E7EVA0)
inactive: IRAK-1-4 Inhibitor I -0.058 | ibrutinib -0.036 | [1] -0.022 | ralimetinib 0.088 | [2] 0.013 | [3] -0.025 | [4] 0.049 | pinometostat 0.104 | [6] 0.027 | [7] 0 | [8] 0.008 | [9] -0.03 | [10] -0.061 | Nexturastat A 0.161 | vemurafenib -0.046 | [11] -0.002 | [12] 0.024 | givinostat 0.091 | barasertib 0.061

LUC7L2 (UniProt Q9Y383)
inactive: IRAK-1-4 Inhibitor I -0.207 | ibrutinib -0.026 | ralimetinib 0.111 | [2] 0.031 | [3] -0.134 | [4] -0.04 | pinometostat -0.048 | [6] -0.037 | [7] 0.016 | [8] -0.011 | [9] 0.006 | [10] 0.089 | Nexturastat A -0.036 | vemurafenib 0.012 | [11] 0.047 | [12] 0.015 | givinostat -0.01 | barasertib 0
active: [1] -0.646

MAGEA9 (UniProt P43362)
active: [6] -0.49
inactive: IRAK-1-4 Inhibitor I 0.008 | ibrutinib -0.094 | [1] 0.101 | ralimetinib 0 | [2] 0.031 | [3] -0.256 | [4] 0.087 | pinometostat 0.009 | [7] -0.033 | [8] 0.05 | [9] -0.005 | [10] -0.087 | Nexturastat A 0.005 | vemurafenib -0.031 | [11] 0.072 | [12] 0.054 | givinostat 0.066 | barasertib 0.036

LUC7L3 (UniProt O95232)
active: [1] -0.409
inactive: IRAK-1-4 Inhibitor I -0.123 | ibrutinib -0.037 | ralimetinib -0.024 | [2] 0.024 | [3] -0.04 | [4] 0.007 | pinometostat -0.023 | [6] 0.109 | [7] -0.046 | [8] 0.034 | [9] -0.036 | [10] 0.086 | Nexturastat A -0.008 | vemurafenib 0.024 | [11] 0.013 | [12] -0.009 | givinostat 0.003 | barasertib 0.022

LUZP1 (UniProt Q86V48)
inactive: IRAK-1-4 Inhibitor I -0.136 | ibrutinib -0.074 | [1] 0.275 | ralimetinib 0.08 | [2] 0.114 | [3] 0.019 | [4] 0.139 | pinometostat 0.113 | [6] 0.079 | [7] -0.128 | [8] 0.136 | [9] -0.005 | [10] -0.182 | Nexturastat A 0.184 | vemurafenib 0.05 | [11] -0.091 | [12] -0.029 | givinostat 0.031 | barasertib -0.062
